Some of these results come from one statement about several compounds together. Some compounds share one range, which may span the group rather than tell each member.
Target: T1, Aurora A kinase (Homo sapiens, UniProt O14965)
T1 sequence (O14965 1-403): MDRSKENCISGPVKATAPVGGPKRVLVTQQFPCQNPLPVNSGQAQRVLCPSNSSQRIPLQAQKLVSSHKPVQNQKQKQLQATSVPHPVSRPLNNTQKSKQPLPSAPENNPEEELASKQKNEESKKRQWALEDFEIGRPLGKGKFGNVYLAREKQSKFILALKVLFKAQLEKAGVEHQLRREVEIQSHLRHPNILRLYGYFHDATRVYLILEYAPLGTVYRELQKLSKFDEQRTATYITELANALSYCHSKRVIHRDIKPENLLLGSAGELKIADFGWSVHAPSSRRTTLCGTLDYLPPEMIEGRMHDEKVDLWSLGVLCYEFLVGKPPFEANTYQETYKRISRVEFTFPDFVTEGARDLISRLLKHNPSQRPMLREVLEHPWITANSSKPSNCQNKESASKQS
Experiment: IC50 determination for inhibitors of Aurora A kinase (ELISA, GST-Histone H3 substrate)
Type: biochemical
Conditions: mutant Aur A kinase, 30 μM ATP, 40 minutes; read-out: IC50 Aurora A kinase inhibition
Description: IC50 Determination for Inhibitors of Aurora A Kinase Assay Principle
Aurora A is a serine threonine kinase involved in spindle assembly and chromosome segregation.
The assay is a typically ELISA-type assay where substrate (GST-Histone H3) is coupled to the assay-plate and is phosphorylated by the kinase. Phosphorylation is detected by a mouse anti-Phosphopeptid mAb and an HRP-labeled anti-mouse pAb. The assay is validated for IC50-determination.
Kinase activities were measured by Enzyme-Linked Immunosorbent Assay (ELISA): Maxisorp 384-well plates (Nunc) were coated with recombinant fusion protein comprising residues 1-15 of HistoneH3 fused to the N-terminus of Glutathione-S-Transferase. Plates were then blocked with a solution of 1 mg/mL I-block (Tropix cat# T2015—highly purified form of casein) in phosphate-buffered saline. Kinase reactions were carried out in the wells of the ELISA plate by combining an appropriate amount of mutant Aur A kinase with test compound and 30 μM ATP. The reaction buffer was 10× Kinase Buffer (Cell Signaling cat #9802) supplemented with 1 μg/mL I-block. Reactions were stopped after 40 minutes by addition of 25 mM EDTA. After washing, substrate phosphorylation was detected by addition of anti-phospho-Histone H3 (Ser 10) 6G3 mAb (Cell Signaling cat #9706) and sheep anti-mouse pAb-HRP (Amersham cat# NA931V), followed by colorimetric development with TMB (3,3′,5,5′-tetramethylbenzidine from Kirkegaard & Perry Laboratories). After readout of the absorbance, IC50 values were calculated using a non-linear curve fit (XLfit software (ID Business Solution Ltd., Guilford, Surrey, UK))

Structure (SMILES)	IC50 [µM]
Cc1cc(-c2nc3cc4c(cc3[nH]2)C(C)(C)C(=O)N4CC#N)n[nH]1 [Example 2, [7,7-Dimethyl-2-(5-methyl-1H-pyrazol-3-yl)-6-oxo-6,7-dihydro-1H-imidazo[4,5-f]indol-5-yl]-acetonitrile]	0.01 to 0.1
Cc1cc(-c2nc3cc4c(cc3[nH]2)N(CC(=O)NCc2ccccc2)C(=O)C4(C)C)n[nH]1 [Example 8, N-Benzyl-2-[7,7-dimethyl-2-(5-methyl-1H-pyrazol-3-yl)-6-oxo-6,7-dihydro-3H-imidazo[4,5-f]indol-5-yl]-acetamide]	0.01 to 0.1
Cc1cc(-c2nc3cc4c(cc3[nH]2)N(CC(=O)N2CCOCC2)C(=O)C4(C)C)n[nH]1 [Example 9, 7,7-Dimethyl-2-(5-methyl-1H-pyrazol-3-yl)-5-(2-morpholin-4-yl-2-oxo-ethyl)-5,7-dihydro-3H-imidazo[4,5-f]indol-6-one]	0.01 to 0.1
COc1cc(CNC(=O)CN2C(=O)C(C)(C)c3cc4nc(-c5cc(C)[nH]n5)[nH]c4cc32)cc(OC)c1 [Example 11, N-(3,5-Dimethoxy-benzyl)-2-[7,7-dimethyl-2-(5-methyl-1H-pyrazol-3-yl)-6-oxo-6,7-dihydro-3H-imidazo[4,5-f]indol-5-yl]-acetamide]	0.01 to 0.1
Cc1cc(-c2nc3cc4c(cc3[nH]2)N(CC(=O)NCc2ccc(F)cc2)C(=O)C4(C)C)n[nH]1 [Example 12, 2-[7,7-Dimethyl-2-(5-methyl-1H-pyrazol-3-yl)-6-oxo-6,7-dihydro-3H-imidazo[4,5-f]indol-5-yl]-N-(4-fluoro-benzyl)-acetamide]	0.01 to 0.1
CCN(CC)CCN1C(=O)C(C)(C)c2cc3nc(-c4cc(C)[nH]n4)[nH]c3cc21 [Example 13, 5-(2-Diethylamino-ethyl)-7,7-dimethyl-2-(5-methyl-1H-pyrazol-3-yl)-5,7-dihydro-3H-imidazo[4,5-f]indol-6-one]	0.01 to 0.1
Cc1cc(-c2nc3cc4c(cc3[nH]2)C(C)(C)C(=O)N4CCN)n[nH]1 [Example 14, 5-(2-Amino-ethyl)-7,7-dimethyl-2-(5-methyl-1H-pyrazol-3-yl)-5,7-dihydro-1H-imidazo[4,5-f]indol-6-one]	0.01 to 0.1

From patent US20090143375A1, “Tricyclic Lactam Derivatives, Their Manufacture and Use as Pharmaceutical Agents” (F. HOFFMANN-LA ROCHE AG, priority 2005, published 2009)
